Laboratory results taken from patent EP4778539A1.
Where a chain is given by its changes, count along the chain named. These are yes or no findings as the source states them, for the method shown. Binding calls can cover weak binding; strength is not graded here. One block for each binder: values may come before it.

Molecular target: CAPRIN-1 protein
Assay: ELISA

- binding: binds
B1: humanized antibody complex #73 (antibody, human IgG1, V domains shown)
VH: EVQLVESGGGLVQPGGSLRLSCAASGFSLSSHSLGWVRQAPGKGLEWIGDIRSGGSAYYANWAKGRFTISRDNSKNTLYLQMNSLRAEDTAVYYCTRTNGPSDLTNRLDLWGQGTLVTVSS
VL: EIVLTQSPSSLSASVGDRVTINCQASQSLYNNENLAWFQQKPGKVPKRLIYGASTLASGVSSRFSGSGSGTEFTLTISNLQPEDFATYYCLGEFSCGSADCFAFGGGTKVEIK

- binding: binds
B2: humanized antibody complex #74 (antibody, human IgG1, V domains shown)
VH: B1 VH with Y94F
VL: B1 VL with I2Q, T87I
